The target in this test is biotinylated JMJD6(81-96) peptide (human) (UniProt Q6NYC1). Briefly: affinity purification with mass spectrometry; biotinylated JMJD6(81-96) peptide on streptavidin beads, incubated with lysate of wild-type or JMJD6-defective HeLa cells overnight at 4 °C; eluted proteins propionylated, trypsin, LC-MSMS; only the target purified.

We go through two molecules from article PMC9371714.

No constants are given. Whether binding was seen depends on the method and setting. In cells and extracts the contact can be indirect. A yes stands for co-enrichment or nearness to the bait. Other partners may have been found. Tags and fused reporters may be left off the sequences shown.

Consider “FACT (facilitates chromatin transcription) complex subunit protein SPT16 (from UniProt Q9Y5B9 1-1047)”, for which the binding result is given as “binds”.

B1: LUC7L2 (Luc7-like 2 pre-mRNA splicing factor) (protein, UniProt Q9Y383 1-392)
chain: MSAQAQMRAMLDQLMGTSRDGDTTRQRIKFSDDRVCKSHLLNCCPHDVLSGTRMDLGECLKVHDLALRADYEIASKEQDFFFELDAMDHLQSFIADCDRRTEVAKKRLAETQEEISAEVAAKAERVHELNEEIGKLLAKVEQLGAEGNVEESQKVMDEVEKARAKKREAEEVYRNSMPASSFQQQKLRVCEVCSAYLGLHDNDRRLADHFGGKLHLGFIEIREKLEELKRVVAEKQEKRNQERLKRREEREREEREKLRRSRSHSKNPKRSRSREHRRHRSRSMSRERKRRTRSKSREKRHRHRSRSSSRSRSRSHQRSRHSSRDRSRERSKRRSSKERFRDQDLASCDRDRSSRDRSPRDRDRKDKKRSYESANGRSEDRRSSEEREAGEI
Take B1: the binding entry is “binds”.
